In the supplement of paper PMC3334620:
In all, about 33,000 sequences were measured (“E-score (-0.5 to 0.5)”: median about -0.015, highest 2% from about 0.3 on). The list shows a part of the results.

What follows are sequences tested against T1, Abf1 (UniProt P14164) (assay: PBM E-score (8-mer binding enrichment) (E-score (-0.5 to 0.5)); higher = stronger / more preferred TF binding). Details: protein concentration: 200 nM; construct: GST-full length.
T1 sequence: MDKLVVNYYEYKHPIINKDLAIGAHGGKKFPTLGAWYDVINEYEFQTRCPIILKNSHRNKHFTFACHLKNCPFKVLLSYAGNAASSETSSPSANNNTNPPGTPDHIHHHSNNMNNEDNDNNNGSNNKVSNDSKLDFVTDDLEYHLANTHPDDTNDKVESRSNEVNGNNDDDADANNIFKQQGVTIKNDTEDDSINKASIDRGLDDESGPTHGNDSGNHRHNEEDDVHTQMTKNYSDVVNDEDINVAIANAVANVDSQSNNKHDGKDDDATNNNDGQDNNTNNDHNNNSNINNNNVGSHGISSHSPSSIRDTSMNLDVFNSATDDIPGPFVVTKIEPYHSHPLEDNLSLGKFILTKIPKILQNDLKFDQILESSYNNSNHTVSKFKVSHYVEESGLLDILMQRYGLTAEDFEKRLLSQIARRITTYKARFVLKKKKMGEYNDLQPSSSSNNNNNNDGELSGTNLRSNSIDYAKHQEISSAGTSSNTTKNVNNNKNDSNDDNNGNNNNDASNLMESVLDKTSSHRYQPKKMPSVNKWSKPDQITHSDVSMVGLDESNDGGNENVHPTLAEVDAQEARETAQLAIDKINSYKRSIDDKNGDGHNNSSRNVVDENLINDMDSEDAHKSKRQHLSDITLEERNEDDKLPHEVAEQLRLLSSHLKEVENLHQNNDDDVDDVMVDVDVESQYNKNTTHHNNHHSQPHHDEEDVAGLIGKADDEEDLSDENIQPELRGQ
Protocol: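 Universal 'all 10-mer' protein binding microarrays (Agilent AMADID 015681) probed with GST-tagged S. cerevisiae TFs (full-length or DBD) made by in vitro transcription/translation (PURExpress), about 100-200 nM. Bound TF was detected with fluorescent anti-GST. Each ungapped 8-mer (which stands for itself and its reverse complement) is scored by the PBM enrichment score (E-score), a modified Wilcoxon-Mann-Whitney statistic from -0.5 to +0.5, computed with the Universal PBM Analysis Suite. Scale: above 0.35 generally sequence-specific binding.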

| Sequence | PBM E-score |
| --- | --- |
| AGCGTGGC | -0.0457 |
| TATGGTGA | 0.132 |
| CGATCCCG | -0.137 |
| GAGGGGCC | -0.265 |
| CTCCGCCA | -0.0449 |
| ACTTGCCC | -0.22 |
| AATATACT | 0.0129 |
| CCTTACAA | -0.189 |
| AGTAGTAG | -0.139 |
| CAAACTAA | 0.148 |
| AAGGATTC | -0.0468 |
| GGGACCAA | -0.215 |
| GCTCAGCC | -0.171 |
| ATTTGTCG | 0.188 |
| ACTATGAC | 0.103 |
| AGGGATGC | -0.137 |
| ACGAACTG | 0.164 |
| AAATTACG | 0.0659 |
| ACGTAAGT | 0.0702 |
| AAGCCTTG | -0.084 |
| GACTATGC | 0.00943 |
| GCCTGGCC | -0.0354 |
| ATACGATA | 0.282 |
| CCGGAGCC | -0.153 |
| ACCTTGAA | -0.0814 |

| Sequence | PBM E-score |
| --- | --- |
| CCTATCCA | -0.215 |
| TACACGAA | 0.337 |
| ATCCGTTG | 0.1 |
| GACCACCC | -0.0784 |
| TCACATCA | 0.224 |
| CCTCATGA | 0.143 |
| ACCTAGTC | 0.0259 |
| AGGGCTAT | -0.17 |
| ATGGATGA | 0.121 |
| CAAGAGGG | -0.207 |
| TACGGGAA | 0.0394 |
| AGGAGTTA | 0.0874 |
| CGGGAGAA | -0.219 |
| AACGTATG | 0.148 |
| ACCACCCG | -0.0365 |
| CAATTTCG | -0.0365 |
| ACTAATCA | 0.138 |
| ACACCGAG | -0.251 |
| CCTGGAAG | -0.107 |
| CTGCCGAA | -0.148 |
| AATGGAAG | 0.0424 |
| ACTGGCGA | -0.106 |
| ACGACATC | 0.303 |
| CACTACCC | -0.0124 |
| CCCGGAAA | -0.125 |

| Sequence | PBM E-score |
| --- | --- |
| ACTAGCGC | 0.0223 |
| AAAGAGAG | -0.214 |
| CAGGATCG | -0.0178 |
| CAGCCCGG | -0.185 |
| GCGCGTAC | 0.0985 |
| CATAAGGA | -0.101 |
| AGTCATCC | 0.188 |
| ATCGCTCC | 0.0885 |
| TCAAGAGA | 0.0894 |
| CTCCGACA | -0.181 |
| ACTCTTGG | -0.0601 |
| CCCATCGG | -0.0692 |
| AGGCTCTA | -0.247 |
| ATTATCAA | 0.193 |
| CCGCAACG | 0.117 |
| AACTGATC | -0.0192 |
| CCATCCAC | 0.0433 |
| TCATATCA | 0.315 |
| GTTGGATA | 0.137 |
| ATAGGGTG | -0.137 |
| ATAGAGGA | -0.0861 |
| ATGTAGCG | -0.163 |
| AGGCAGTG | -0.157 |
| ACCTCTCG | -0.178 |
| GAGATAAA | 0.157 |

As entered above:
TCAAGAGA – PBM E-score: 0.0894
ACTCTTGG – PBM E-score: -0.0601

Later entries:

| Sequence | PBM E-score |
| --- | --- |
| ACCTCAGA | -0.165 |
| AATGGATC | 0.113 |
| ACCGGCCA | -0.177 |
| GAGATCCC | 0.0352 |
| AGGCCGCC | -0.174 |
| CGTTAAGA | 0.248 |
| CTCACAAC | 0.00328 |
| ATCCTCGA | 0.105 |
| TAATCGGA | 0.0729 |
| TGTGGTAA | 0.0219 |
| AGTCACAT | 0.0571 |
| ATGGTCAC | 0.141 |
| AACCGGAC | -0.154 |
| CGCGAGAG | -0.105 |
| ACGGAAAA | 0.187 |
| CCACAGAG | -0.0437 |
| CCAAAACA | -0.0686 |
| TCTATGAA | 0.0829 |
| ATCCCAGA | -0.198 |
| GGCTGCAA | -0.111 |
| ACCTGCCA | -0.0113 |
| TGCTTCAA | -0.055 |
| ACATTCCA | -0.0289 |
| TAAAACGA | 0.159 |
| CAATGTAA | 0.0165 |

No new results follow: entries from further up.

| Sequence | PBM E-score |
| --- | --- |
| TCTATGAA | 0.0829 |
| ATCCCAGA | -0.198 |
| GGCTGCAA | -0.111 |
| ACCTGCCA | -0.0113 |

(next part)

| Sequence | PBM E-score |
| --- | --- |
| AATAGAGT | -0.111 |
| CAAGTGAG | 0.0165 |
| ACAACCAG | -0.0761 |
| ATGTACCC | -0.113 |
| TCATGACA | 0.323 |
| CCTGAAGA | -0.0909 |
| GAACGACC | -0.0103 |
| ATTAATCA | 0.257 |
| AGCAGGGA | 0.0538 |
| AAAACCGA | 0.0815 |
| AATCGAGG | -0.107 |
| AATGTCTG | 0.0426 |
| CGCGATGA | 0.174 |
| CTCCACAG | -0.222 |
| TCCCGTCA | 0.0971 |
| CCCATCCC | -0.282 |
| CAGCAGAA | -0.0959 |
| GCGTCGAA | 0.0222 |
| CCTGCGAA | 0.0529 |
| CTAACTAG | 0.0528 |
| ATGGCAAA | -0.0363 |
| AACATGAG | -0.0788 |
| CTACACGA | 0.247 |
| AAACATCC | 0.0303 |
| AGGCACAT | -0.0983 |

| Sequence | PBM E-score |
| --- | --- |
| CACACACA | -0.0651 |
| CGCATGAA | -0.0897 |
| AGAAGAAC | 0.0449 |
| AATGTATC | 0.241 |
| AAGGCGAC | -0.174 |
| CGTTGTGC | 0.0413 |
| CTATCGGC | -0.283 |
| CACACTCG | 0.139 |
| CAGCTGAC | -0.0631 |
| ACGGCAGT | 0.25 |
| ATCCACAA | -0.138 |
| CACGTCGC | 0.16 |
| GCAGGAGC | -0.0996 |
| GAGATATA | 0.147 |
| ATTCCTTC | -0.0137 |
| GGAAACAA | -0.0829 |
| AATACGGC | 0.32 |
| AGTTGTGA | 0.168 |
| ACGAATAC | 0.201 |
| CCAAACAA | 0.0866 |
| ACACCATG | -0.024 |
| GATCAGAC | -0.109 |
| AAGCCTCG | 0.0393 |
| CCTTGTAA | 0.0623 |
| CCGCCCGC | -0.217 |

A second format for part of the listing above:
Sequence	PBM E-score
GAGATATA	0.147
ATTCCTTC	-0.0137
GGAAACAA	-0.0829
AATACGGC	0.32
AGTTGTGA	0.168
ACGAATAC	0.201
CCAAACAA	0.0866

Following part:

| Sequence | PBM E-score |
| --- | --- |
| ATTATTGC | 0.0704 |
| CCCGGCTC | -0.259 |
| CGAGCGTC | -0.171 |
| CCTTCGAA | -0.221 |
| AGACTCTA | -0.143 |
| AACAATCC | -0.00262 |
| CAATCAAA | 0.156 |
| CCCCTGTA | -0.0606 |
| CGGCTGTC | -0.181 |
| ACACTAAT | 0.0747 |
| TAGATTAA | 0.19 |
| ATTATAAT | 0.214 |
| CTTGTGGC | -0.105 |
| GGGTCTTA | -0.183 |
| CACGGCAC | 0.214 |
| ACAATCAG | -0.0246 |
| CACTTAAC | 0.0152 |
| ACCTCCGT | 0.102 |
| GTACGTTA | 0.229 |
| CCAGAAAC | -0.138 |
| CTTATACC | 0.0796 |
| AGTCTAAA | -0.0752 |
